{"source": "PubChem BioAssay AID624297", "about": "(National Center for Advancing Translational Sciences (NCATS), 2012)", "note": "The campaign covered roughly 340,000 compounds. About 6,200 (1.8%) were called active. Inconclusive means that the source gave no clear call. Such entries were picked first, then a sample of the others. Calls follow the shape of the dose curve; as a rule, active = well fitted activation curve with a large enough effect; inconclusive = small, poorly fitted or top-dose-only effect; inactive = no such curve, though single readings can be large or run the other way. Potencies of inconclusive entries are doubtful fits and often do not repeat. Potency is read from the fitted curve at half-maximal effect.", "data": [{"test": "A quantitative high throughput screen for small molecules that induce DNA re-replication in SW480 colon adenocarcinoma cells; also: nearly all actives have a fitted effect of over 55% in size; as to re-replication activation: % of control where 0% means no effect.", "settings": "Hoechst DNA content imaging, 48 h; re-replication activation: at 46.1 µM (top of the series) unless noted", "outline": "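Readout is total intensity of Hoechst-stained nuclei, excited at 405 nm and collected at 500-530 nm. Compound treatment lasted 48 hr at 37 C in 5% CO2 before staining.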", "values": [{"smiles": "Cc1cc(C)nc(-n2nc(C)cc2NC(=O)c2cccc(S(=O)(=O)N3CCOCC3)c2)n1", "Potency": "inconclusive: 4.61 µM [activator, full curve, poor fit]"}, {"smiles": "Cc1ccc(S(=O)(=O)N2CCOCC2)cc1C(=O)OCC(=O)Nc1ccc2[nH]c(=O)[nH]c2c1", "Potency": "inactive"}, {"smiles": "COc1ccc(-c2n[nH]c(=S)n2-c2ccc(C)cc2C)cc1", "Potency": "inactive"}, {"smiles": "O=C1NC(=O)/C(=C\\c2ccc(OCc3cnc(Cl)s3)cc2)S1", "Potency": "inconclusive: 25.9 µM [activator, single point]"}, {"smiles": "CCOC(=O)[C@H]1[C@H]2COc3ccc(OC)cc3[C@@H]2N2C(=O)CN(Cc3ccc(F)cc3)C(=O)[C@@]12C", "Potency": "inactive"}, {"smiles": "Cc1cnc(NC(=O)CSc2nnc(Cc3ccccc3)o2)s1", "Potency": "inconclusive: 6.51 µM [activator, partial curve]"}, {"smiles": "CCN(CC(=O)NCc1ccc(F)cc1)C(=O)/C=C/c1cc(OC)ccc1OC", "Potency": "inactive"}, {"smiles": "Cc1ccc(C(=O)CSc2nnc3n2CCCCC3)s1", "Potency": "inactive"}, {"smiles": "COc1cc(/C=C(\\C#N)c2nc3ccccc3[nH]2)cc(OC)c1O", "Potency": "inconclusive: 25.9 µM [activator, single point]"}, {"smiles": "CCC(C)c1ccc(NC(=O)c2cccnc2)cc1", "note": "(stereo not given)", "Potency": "inconclusive: 32.6 µM [activator, partial curve, poor fit]"}, {"smiles": "COc1ccc2c(-c3ccc(OCCN4CCOCC4)cc3)c(-c3ccccc3OC)sc2c1", "Potency": "inconclusive: 2.31 µM [activator, partial curve, poor fit]"}, {"smiles": "OC(COc1ccc2cc(Br)ccc2c1)CN1CCCC1", "note": "(stereo not given)", "Potency": "inconclusive: 29.1 µM [activator, single point]"}, {"smiles": "Nc1ccc(-c2nc3ccc(-c4nc5ccccc5o4)cc3[nH]2)cc1", "Potency": "active: 4.47 µM"}, {"smiles": "O=C(COC(=O)c1ccc(Br)o1)Nc1nc2c(F)c(F)c(F)cc2s1", "Potency": "inconclusive: 20.6 µM [activator, single point]"}, {"smiles": "CC(=O)Oc1ccc(-c2csc(Nc3cccc(C)n3)n2)cc1", "Potency": "inconclusive: 23.1 µM [activator, single point]"}, {"smiles": "COc1ccc(OC)c(NC(=O)CN(c2ccc(C(C)C)cc2)S(=O)(=O)c2c(C)noc2C)c1", "Potency": "inactive"}, {"smiles": "COc1ccc(NC(=O)CSc2nnc(-c3cccs3)n2-c2ccccc2)cc1", "Potency": "inconclusive: 29.1 µM [activator, single point]"}, {"smiles": "O=C(Cc1ccccc1)NC(Nc1cccc2ccccc12)C(Cl)(Cl)Cl", "note": "(stereo not given)", "Potency": "inactive"}, {"smiles": "CCOC(=O)c1c(N)sc(C(O)(C(F)(F)F)C(F)(F)F)c1-c1ccc(Cl)cc1", "Potency": "inconclusive: 29.1 µM [activator, single point]"}, {"smiles": "O=C(CSc1nnc(-c2c[nH]c3ccccc23)o1)NCC1CCCO1", "note": "(stereo not given)", "Potency": "inactive"}, {"smiles": "OC(COc1ccc(CNCCc2ccc(C(F)(F)F)cc2)cc1)CN1CCCCC1", "note": "(stereo not given)", "Potency": "inconclusive: 32.6 µM [activator, partial curve, poor fit]"}, {"smiles": "CCOC(=O)C1CCCN(Cc2cc(Br)ccc2OC)C1", "note": "(stereo not given)", "Potency": "inactive"}, {"smiles": "CCCc1ccc(-c2cc(C(=O)N/N=C/c3ccc([N+](=O)[O-])o3)c3ccccc3n2)cc1", "Potency": "active: 7.08 µM"}, {"smiles": "O=C(CCCl)Nc1nc2c(s1)CCc1ccccc1-2", "Potency": "inconclusive: 18.4 µM [activator, single point]"}, {"smiles": "CCN(CC(=O)Nc1cc(Cl)ccc1C)C(=O)CSCc1ccccc1", "Potency": "inconclusive: 1.03 µM [activator, full curve, poor fit]"}, {"smiles": "COCCn1c(-c2cccs2)nc2nc3ccccc3nc21", "Potency": "active: 7.31 µM"}, {"smiles": "CCOC(=O)N1CCN(C(=O)CN2C(=O)c3ccccc3S2(=O)=O)CC1", "Potency": "inconclusive: 4.61 µM [activator, full curve, poor fit]"}, {"smiles": "COc1ccc(Br)cc1CN1CCC(N2CCCC2)CC1", "re-replication activation": "inconclusive: 18.2% [activator]"}, {"smiles": "COc1cccc(CC(=O)NNC(=O)CN(C)S(=O)(=O)c2ccc(C)cc2)c1", "Potency": "inactive"}, {"smiles": "CCOC(=O)C1=C(C)N(CCCCCC(=O)O)C(=O)NC1c1cccc([N+](=O)[O-])c1", "note": "(stereo not given)", "Potency": "inconclusive: 0.13 µM [activator, full curve, poor fit]"}, {"smiles": "CN(C)c1ccc(N2CN=C3SCC(=O)N3C2)cc1", "Potency": "inconclusive: 29.1 µM [activator, single point]"}, {"smiles": "CCOC(=O)c1cc2c(=O)n3ccccc3nc2n(Cc2ccco2)c1=NC(=O)c1cccc(OC)c1", "Potency": "inconclusive: 18.4 µM [activator, single point]"}, {"smiles": "CCN1c2ccccc2-c2nc3ccccc3n2C1c1cccs1", "note": "(stereo not given)", "Potency": "inconclusive: 32.6 µM [activator, partial curve, poor fit]"}, {"smiles": "NC(=O)c1cc2cc(Cc3ccccc3Cl)ccc2oc1=O", "Potency": "inconclusive: 1.84 µM [activator, full curve, poor fit]"}, {"smiles": "Cc1ccccc1Cn1nc(C)c(NC(=O)/C=C/c2cnn(C)c2)c1C", "Potency": "inconclusive: 29.1 µM [activator, partial curve, poor fit]"}, {"smiles": "Cc1cc(C)cc(NC(=O)Cn2nnc(C(=O)NCc3ccc(F)cc3)c2N)c1", "Potency": "active: 29.1 µM"}, {"smiles": "CCCCCN(C(=O)CCC(=O)OCc1cccc(C(F)(F)F)c1)c1c(N)n(CCCC)c(=O)[nH]c1=O", "Potency": "inconclusive: 14.6 µM [activator, partial curve, poor fit]"}, {"smiles": "COc1cc2ccccc2cc1C(=O)Nc1ccc(Cc2ccncc2)cc1", "Potency": "active: 18.4 µM"}, {"smiles": "COc1cccc(/C=N/NC(=O)Cn2nc(C)c([N+](=O)[O-])c2C)c1O", "Potency": "inconclusive: 2.59 µM [activator, full curve]"}, {"smiles": "CCN(CC(=O)Nc1c(F)cccc1F)C(=O)/C=C/c1ccc2c(c1)OCO2", "Potency": "inconclusive: 14.6 µM [activator, partial curve, poor fit]"}, {"smiles": "COc1cc2c(cc1NC(=O)CSc1nc3ccccc3[nH]1)oc1ccccc12", "Potency": "inconclusive: 29.1 µM [activator, single point]"}, {"smiles": "COCCCNC(=O)c1cc(C(=O)c2c(-c3c(Cl)cccc3Cl)noc2C)c[nH]1", "Potency": "inconclusive: 25.9 µM [activator, single point]"}, {"smiles": "COc1ccc2c(C(=O)NCc3ccc4c(c3)OCO4)c(-c3ccc(S(C)(=O)=O)cc3)sc2c1", "Potency": "active: 3.66 µM"}, {"smiles": "O=C(/C=C/c1ccccc1)NCCc1ccccc1", "Potency": "inactive"}, {"smiles": "O=C1OC(NC(=O)c2ccccc2)C(n2cc(CO)nn2)=C1Cl", "note": "(stereo not given)", "Potency": "inconclusive: 29.1 µM [activator, partial curve, poor fit]"}, {"smiles": "Oc1ccc(N2CCN(C(c3cccnc3)c3nnnn3Cc3ccccc3)CC2)cc1", "note": "(stereo not given)", "Potency": "inconclusive: 5.17 µM [activator, partial curve, poor fit]"}, {"smiles": "O=C(NCc1ccc2c(c1)OCO2)c1cc2ccccc2o1", "Potency": "inconclusive: 23.1 µM [activator, partial curve, poor fit]"}, {"smiles": "O=C(CSc1ccccc1)NCC1(N2CCCCC2)CCCCC1", "Potency": "inactive"}, {"smiles": "CC(C)CN1CCC(=O)N(CCOc2ccccc2)CC1", "Potency": "inactive"}, {"smiles": "COC(=O)c1ccccc1NC(=O)NC1CCN(Cc2ccccc2)CC1", "Potency": "inactive"}, {"smiles": "CC[C@@H](C)[C@@H]1CN([C@@H](C)CN2CCC[C@H]2CN2C(N)=NC[C@H]2C(C)C)C(=N)N1CCc1ccc(Cl)c(Cl)c1", "Potency": "inconclusive: 0.092 µM [activator, full curve, poor fit]"}, {"smiles": "Cc1ccc(C)c(S(=O)(=O)N2CCCOC2CNC(=O)C(=O)NCCc2ccccc2)c1", "note": "(stereo not given)", "Potency": "inconclusive: 32.6 µM [activator, partial curve, poor fit]"}, {"smiles": "COc1ccccc1Nc1c2ccccc2nc2ccccc12", "Potency": "inconclusive: 29.1 µM [activator, partial curve, poor fit]"}, {"smiles": "CC(=O)Nc1ccccc1-c1nnn(CC(=O)Nc2ccc3c(c2)OCCO3)n1", "Potency": "inactive"}, {"smiles": "CC(C)(C)OC(=O)NCc1ccc(NC(=O)c2nc[nH]c2C(=O)N[C@@H](Cc2ccccc2)C(=O)OC(C)(C)C)cc1", "Potency": "inactive"}, {"smiles": "Cc1ccc(S(=O)(=O)CCC(O)c2ccc(Cl)cc2)cc1", "note": "(stereo not given)", "Potency": "inactive"}, {"smiles": "Cc1cc(NCc2ccccc2)n2ncc(-c3ccccc3)c2n1", "Potency": "inconclusive: 7.31 µM [activator, single point]"}, {"smiles": "CCOCCCNC(=O)CCn1nc(-c2ccc(Cl)cc2)ccc1=O", "re-replication activation": "inconclusive: 55.2% [activator]"}, {"smiles": "Cc1cccc(OCC(=O)N/N=C/c2cc([N+](=O)[O-])ccc2N2CCOCC2)c1", "Potency": "inactive"}, {"smiles": "O=C(CN1C(=O)c2ccccc2S1(=O)=O)Nc1ccon1", "Potency": "inactive"}, {"smiles": "CCSC1=NC(C)(C)C=C(/C=C/c2ccc(Cl)cc2Cl)N1", "Potency": "inconclusive: 16.4 µM [activator, single point]"}, {"smiles": "Cc1nc(C)c(-c2ccc(SCC(=O)Nc3ccc(F)cc3F)nn2)s1", "Potency": "inactive"}, {"smiles": "Cc1ccc(OCC(=O)Nc2ccc3c(c2)OCO3)cc1C", "Potency": "inconclusive: 20.6 µM [activator, partial curve, poor fit]"}, {"smiles": "CCN(CC)S(=O)(=O)c1ccc(C(=O)Nc2cccc(C)c2)cc1", "Potency": "inactive"}, {"smiles": "CCN1C(=O)/C(=C\\C(=O)c2cccs2)c2cc(Br)ccc21", "Potency": "inconclusive: 29.1 µM [activator, single point]"}, {"smiles": "CCOc1ncccc1C(=O)OCC(=O)Nc1ccc2c(c1)OCO2", "Potency": "inactive"}, {"smiles": "Fc1cccc(COc2ccccc2CNc2ccccc2)c1", "Potency": "inactive"}, {"smiles": "COCCCNC(=S)NNC(=O)c1cc(C2CC2)nc2ccccc12", "Potency": "inconclusive: 23.1 µM [activator, single point]"}, {"smiles": "O=c1c(-c2ccc(O)cc2)coc2cc(OC3OC(CO)C(O)C(O)C3O)cc(O)c12", "note": "(stereo not given)", "Potency": "inconclusive: 29.1 µM [activator, single point]"}, {"smiles": "CC1CCC2(CC1)N=C(N)Nc1nc3ccccc3n12", "note": "(stereo not given)", "Potency": "inconclusive: 6.51 µM [activator, partial curve, poor fit]"}]}]}
